Key:
[1] = system: BRET^2 based thrombin biosensor; assay: Real-time on-chip thrombin sensing, side-by-side vs pancake stack network; format: biochemical; settings: 50 μl per hour each input arm
[2] = system: GFP^2-RG-RLuc biosensor; assay: On-chip (Y-shape microchannel) BRET^H thrombin assay; format: biochemical
[3] = system: BRET thrombin biosensor; settings: Dacres et al. 2009a; cited from earlier work

thrombin
lowest concentration of thrombin observable in real time, side-by-side network ([1]; 120 seconds): 540 nM | lowest concentration of thrombin detected, pancake stack network ([1]; 478 second residence time, lowest concentration tested): 14 nM | detection limit for thrombin, microchip-based technique ([2]; 3.0 μM fusion protein, 58.6 μM native coelenterazine, 20 μl/h, x=2.1 mm): 27 pM | sensitivity to changing thrombin concentrations, microfluidic vs microplate (gradients of calibrations) ([2]; low thrombin concentration region): 4.7 times | detection limit for thrombin, BRET^1 microplate-based assay [3]: 53 µM | detection limit for thrombin, BRET^2 microplate-based assay [3]: 15 µM

From patent US11385234B2, “Methods and systems for detecting an analyte or classifying a sample” (Commonwealth Scientific and Industrial Research Organisation, priority 2012, dated 2022)
